PubChem BioAssay AID686938, Drosophila RNAi Screening Center – 2013
Assay: 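Fly genes required for calcium entry once internal stores are emptied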 (primary screen). Cell system: Drosophila S2R+ cells. Reagents: long dsRNA against Drosophila genes, about 0.25 µg dsRNA per well, roughly 10,000 cells. Timing: 5 days of knock-down before the calcium assay. Conditions: thapsigargin (SERCA pump blocker) to empty calcium stores; entry signal taken 4 min after adding it. Measured: 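Per-well fluo-4 fluorescence in two replicates, unnormalised, measured in resting cells and 4 min after store depletion by the SERCA blocker thapsigargin; ratio of the two present in few wells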. Reading the numbers: calcium entry signal: higher = stronger calcium signal after store depletion; entry to resting ratio: higher = more calcium entry relative to resting level; resting calcium signal: higher = higher resting calcium signal. Units: calcium entry signal in fluorescence units; resting calcium signal in fluorescence units. Call rule: 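Hit if the duplicate-averaged plate z-score for entry over resting signal is under −3; wells with weak total dye signal (Fmax z < −2) or more than 5 off-targets removed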. Calls: active = strongly reduced calcium entry; inactive = no strong reduction.
The screen tested about 23,000 reagents; shown is a random part of those that have a named target and a result. Of all reagents, 75 (0.33%) were called active. 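Raw plate signals without normalisation; calls rest on plate z-scores that were not deposited; ratio present for only 364 wells.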 No sequences are given here. Not given: the dose of the treatment.

For CG15414 [DRSC00429] the deposit lists calcium entry signal, replicate 1 = 2.77e7; calcium entry signal, replicate 2 = 2.94e7; resting calcium signal, replicate 1 = 1.45e7; resting calcium signal, replicate 2 = 1.36e7; inactive.
After knock-down of CG15414 [DRSC22353], the record shows calcium entry signal, replicate 1 = 4.20e7; calcium entry signal, replicate 2 = 6.56e7; resting calcium signal, replicate 1 = 2.06e7; resting calcium signal, replicate 2 = 3.43e7; inactive.
Against fs(1)N [DRSC18578], the entry reads calcium entry signal, replicate 1 = 5.18e7; calcium entry signal, replicate 2 = 4.43e7; entry to resting ratio 2.1; resting calcium signal, replicate 1 = 2.41e7; resting calcium signal, replicate 2 = 1.95e7; inactive.
After knock-down of CG11977 [DRSC14454], the record shows calcium entry signal, replicate 1 = 5.81e7; calcium entry signal, replicate 2 = 3.48e7; resting calcium signal, replicate 1 = 2.67e7; resting calcium signal, replicate 2 = 1.74e7; inactive.
Knock-down of Clbn [DRSC14404] came out at: calcium entry signal, replicate 1 = 4.17e7; calcium entry signal, replicate 2 = 5.22e7; resting calcium signal, replicate 1 = 2.23e7; resting calcium signal, replicate 2 = 2.03e7; inactive.
Depletion of cup [DRSC03516] resulted in: calcium entry signal, replicate 1 = 3.72e7; resting calcium signal, replicate 1 = 2.31e7; inactive.
Depletion of CG17646 [DRSC00507] resulted in: calcium entry signal, replicate 1 = 4.91e7; resting calcium signal, replicate 1 = 2.73e7; inactive.
zormin [DRSC07969] showed calcium entry signal, replicate 1 = 3.67e7; calcium entry signal, replicate 2 = 3.59e7; resting calcium signal, replicate 1 = 1.78e7; resting calcium signal, replicate 2 = 1.62e7; inactive.
After knock-down of zormin [DRSC08210], the record shows calcium entry signal, replicate 1 = 3.04e7; calcium entry signal, replicate 2 = 3.48e7; resting calcium signal, replicate 1 = 1.47e7; resting calcium signal, replicate 2 = 1.63e7; inactive.
Depletion of zormin [DRSC08212] resulted in: calcium entry signal, replicate 1 = 2.96e7; calcium entry signal, replicate 2 = 3.34e7; resting calcium signal, replicate 1 = 1.54e7; resting calcium signal, replicate 2 = 1.56e7; inactive.
After knock-down of zormin [DRSC08213], the screen gave calcium entry signal, replicate 1 = 3.23e7; calcium entry signal, replicate 2 = 3.74e7; resting calcium signal, replicate 1 = 1.54e7; resting calcium signal, replicate 2 = 1.82e7; inactive.
With knock-down of zormin [DRSC08297] the results were calcium entry signal, replicate 1 = 3.15e7; calcium entry signal, replicate 2 = 3.56e7; resting calcium signal, replicate 1 = 1.63e7; resting calcium signal, replicate 2 = 1.76e7; inactive.
After knock-down of zormin [DRSC08571] the results were calcium entry signal, replicate 1 = 4.58e7; calcium entry signal, replicate 2 = 3.68e7; resting calcium signal, replicate 1 = 2.13e7; resting calcium signal, replicate 2 = 1.92e7; inactive.
Against zormin [DRSC22483], the values are calcium entry signal, replicate 1 = 3.67e7; calcium entry signal, replicate 2 = 3.75e7; resting calcium signal, replicate 1 = 2.04e7; resting calcium signal, replicate 2 = 1.72e7; inactive.
CG34334 [DRSC20643] scored calcium entry signal, replicate 1 = 4.68e7; calcium entry signal, replicate 2 = 4.77e7; resting calcium signal, replicate 1 = 2.18e7; resting calcium signal, replicate 2 = 1.99e7; inactive.
Knock-down of aus [DRSC13471] gave: calcium entry signal, replicate 1 = 5.96e7; calcium entry signal, replicate 2 = 3.99e7; resting calcium signal, replicate 1 = 2.84e7; resting calcium signal, replicate 2 = 1.90e7; inactive.
After knock-down of aus [DRSC13473], the record shows calcium entry signal, replicate 1 = 5.06e7; calcium entry signal, replicate 2 = 3.71e7; resting calcium signal, replicate 1 = 2.67e7; resting calcium signal, replicate 2 = 1.89e7; inactive.
aus [DRSC15157] gave calcium entry signal, replicate 1 = 5.17e7; calcium entry signal, replicate 2 = 4.17e7; resting calcium signal, replicate 1 = 2.10e7; resting calcium signal, replicate 2 = 1.53e7; inactive.
Silencing of Akt [DRSC14108] gave: calcium entry signal, replicate 1 = 2.89e7; calcium entry signal, replicate 2 = 2.36e7; resting calcium signal, replicate 1 = 1.46e7; resting calcium signal, replicate 2 = 1.10e7; inactive.
Knock-down of Or85f [DRSC16769] gave: calcium entry signal, replicate 1 = 2.71e7; calcium entry signal, replicate 2 = 2.51e7; resting calcium signal, replicate 1 = 1.37e7; resting calcium signal, replicate 2 = 1.38e7; inactive.
CG9752 [DRSC04562] showed calcium entry signal, replicate 1 = 4.31e7; resting calcium signal, replicate 1 = 2.16e7; inactive.

Individual results from above:
fs(1)N [DRSC18578], calcium entry signal, replicate 2 → 4.43e7
Under “outcome”, cup [DRSC03516] reads inactive
